US9504729B2, “Antiangiogenic small molecules and methods of use” (The United States of America, as represented by the …, priority 2009, dated 2016)
“Also recorded” adds a separate entry of the source. Where two headings read alike, the source gives them in different places. Some of these results come from one statement about several compounds together. For some assays here: At least one compound was matched to its structure with a doubt left.

What was measured:
[1] = tested on: endothelial cells; assay: Primary screening: cell-based growth HTS and tube formation HTS (bioactivity class)
[2] = tested on: tumor cells (A549, MCF7); assay: Growth HTS, tumor cells compared with endothelial cells; assay type: cell-based, human
[3] = tested on: endothelial cells (PAE, BEC); assay: Growth HTS, fluorescent endothelial cells; assay type: cell-based, porcine; human
[4] = tested on: endothelial cells; assay: Tube formation HTS; assay type: cell-based; details: 1 μM

## 2,5-dibromo-3,6-dimethylbenzene-1,4- diol; 2,5-dibromo-3,6- dimethylcyclohexa-2,5-diene-1,4-dione [Compound 72]
[1]
  type of inhibition (endothelial cell growth and/or tube formation): both endothelial cell growth and tube formation inhibitors
[2]
  growth inhibitory activity in tumor cells vs endothelial cells: inhibit the growth of both endothelial cells and tumor cells; also recorded: inhibitory activity in both tumor cells and endothelial cells

## O=C1C(Cl)=C(Sc2nnc3c4ccccc4c4ccccc4c3n2)C(=O)c2ccccc21 [Compound 77, 2-chloro-3-phenanthro[9,10-e]-[1,2,4]triazin-3-ylsulfanylnaphthalene-1,4-dione]
[2]
  growth inhibitory activity in tumor cells vs endothelial cells: inhibit the growth of tumor cells but not endothelial cells; also recorded: specifically inhibit tumor growth, but not endothelial cell growth; also recorded: specific tumor cell growth inhibitors

## Nc1ccn(C2OC(CO)C3[O][Sn]([c]4ccccc4)([c]4ccccc4)[O]C32)c(=O)n1 (centres unmarked) [Compound 36, 4-amino-1-[6-(hydroxymethyl)-2,2-diphenyl-3a,4,6,6a-tetrahydrofuro[3,4-d][1,3,2]dioxastannol-4-yl]pyrimidin-2-one]
[3]; 1 μM
  endothelial cell growth inhibition: endothelial cell growth inhibitors
[2]
  growth inhibitory activity in tumor cells vs endothelial cells: inhibit the growth of both endothelial cells and tumor cells; also recorded: inhibitory activity in both tumor cells and endothelial cells

## CCCCC[CH2][Hg]1[S+]=C2N=C(N)Nc3[nH]c[n+]1c32 [Compound 50, (2-aminopurin-9-id-6-yl)sulfanyl-hexylmercury]
[4]
  tube formation inhibition: tube formation inhibitors
[2]
  growth inhibitory activity in tumor cells vs endothelial cells: inhibit the growth of both endothelial cells and tumor cells

## COc1ccc2c(c1)c1c(C)c3cnccc3c(C)c1n2CCCN.Cl [Compound 26, 3-(9-methoxy-5,11-dimethylpyrido[4,3-b]carbazol-2-ium-6-yl)propan-1-amine chloride]
[2]
  growth inhibitory activity in tumor cells vs endothelial cells: inhibit the growth of both endothelial cells and tumor cells; also recorded: inhibitory activity in both tumor cells and endothelial cells

## CC(C)(C)c1cc(C#N)cc(Br)c1OP(=O)(Oc1c(Br)cc(C#N)cc1C(C)(C)C)c1ccccc1 [Compound 60, 3-bromo-4-[(2-bromo-6-tert-butyl-4-cyanophenoxy)-phenylphosphoryl]oxy-5-tert-butylbenzonitrile]
[4]
  tube formation inhibition: tube formation inhibitors
[2]
  growth inhibitory activity in tumor cells vs endothelial cells: inhibit the growth of both endothelial cells and tumor cells

## CCC1(OC(=O)CN)C(=O)OCc2c1cc1n(c2=O)Cc2cc3ccccc3nc2-1.Cl (centres unmarked) [Compound 34, 4-Ethyl-3,14-dioxo-3,4,12,14-tetrahydro-1H-pyrano[3′,4′:6,7]indolizino[1,2-b]quinolin-4-yl aminoacetate hydrochloride]
[3]
  endothelial cell growth inhibition: endothelial cell growth inhibitors
[2]; hydrochloride
  growth inhibitory activity in tumor cells vs endothelial cells: inhibit the growth of both endothelial cells and tumor cells; also recorded: inhibitory activity in both tumor cells and endothelial cells

## Cl.c1cnc2c(c1)ccc1cccnc12 [Compound 74, 1,10-phenanthroline hydrochloride]
[2]; hydrochloride
  growth inhibitory activity in tumor cells vs endothelial cells: inhibit the growth of tumor cells but not endothelial cells; also recorded: specifically inhibit tumor growth, but not endothelial cell growth; also recorded: specific tumor cell growth inhibitors

## Cc1c2cc[n+](CCN3CCCCC3)cc2c(C)c2c1[nH]c1ccc(O)cc12 [Compound 30, 5,11-dimethyl-2-(2-piperidin-1-ylethyl)-6H-pyrido[4,3-b]carbazol-2-ium-9-ol acetate]
[3]
  endothelial cell growth inhibition: endothelial cell growth inhibitors
[2]
  growth inhibitory activity in tumor cells vs endothelial cells: inhibit the growth of both endothelial cells and tumor cells; also recorded: inhibitory activity in both tumor cells and endothelial cells

## CC(C)(O)/C=C/C(=O)C(C)(O)C1C(O)CC2(C)C3CC=C4C(C=C(O)C(=O)C4(C)C)C3(C)C(=O)CC12C (centres unmarked) [Compound 54, 17-[(E)-2,6-dihydroxy-6-methyl-3-oxohept-4-en-2-yl]-2,16-dihydroxy-4,4,9,13,14-pentamethyl-8,10,12,15,16,17-hexahydro-7H-cyclopenta[a]phenanthrene-3,11-dione]
[4]
  tube formation inhibition: tube formation inhibitors
[2]
  growth inhibitory activity in tumor cells vs endothelial cells: inhibit the growth of both endothelial cells and tumor cells

## azidobenzene; 1H-indene; prop-1-en-2- ylbenzene [Compound 49]
[4]
  tube formation inhibition: tube formation inhibitors
[2]
  growth inhibitory activity in tumor cells vs endothelial cells: inhibit the growth of both endothelial cells and tumor cells

## COc1ccc(CC2C(=O)NC(C)C(=O)N(C)C3Cc4ccc(cc4)Oc4cc(ccc4O)CC(C(=O)NC(C)C(=O)NC(C)C(=O)N2C)N(C)C3=O)cc1 (centres unmarked) [Compound 58, Deoxybouvardin or 24-hydroxy-10-(4-methoxybenzyl)-4,7,9,13,15,29-hexamethyl-22-oxa-3,6,9,12,15,29-hexaazatetracyclo-[14.12.2.2~18,21~.1~23,27~]tritriaconta-18,20,23(31),24,26,32-hexaene-2,5,8,11,14,30-hexone]
[4]
  tube formation inhibition: tube formation inhibitors
[2]
  growth inhibitory activity in tumor cells vs endothelial cells: inhibit the growth of both endothelial cells and tumor cells

## COc1cc2cc(c1Cl)N(C)C(=O)CC(OC(=O)C(C)C)C1(C)OC1C(C)C1CC(O)(NC(=O)O1)C(OC)/C=C/C=C(\C)C2 (centres unmarked) [Compound 56, Maytansinol isobutyrate or 4,24-Dioxa-9,22-diazatetracyclo[19.3.1.110,14.03,5] hexacosane, maytansine deriv.]
[4]
  tube formation inhibition: tube formation inhibitors
[2]
  growth inhibitory activity in tumor cells vs endothelial cells: inhibit the growth of both endothelial cells and tumor cells

## N=C1NC2=[S+][Hg]([c]3ccc(N)cc3)[n+]3cn(C4OC(CO)C(O)C4O)c(c32)N1 (centres unmarked) [Compound 57, Mercury, (4-aminophenyl)(6-thioguanosinato-N7,S6)-]
[4]
  tube formation inhibition: tube formation inhibitors
[2]
  growth inhibitory activity in tumor cells vs endothelial cells: inhibit the growth of both endothelial cells and tumor cells

## O=[As](O)(O)c1ccc(Cc2ccc([As](=O)(O)O)cc2)cc1 [Compound 69, [4-[(4-arsonophenyl)methyl]phenyl]arsonic acid]
[1]
  type of inhibition (endothelial cell growth and/or tube formation): both endothelial cell growth and tube formation inhibitors
[2]
  growth inhibitory activity in tumor cells vs endothelial cells: inhibit the growth of both endothelial cells and tumor cells; also recorded: inhibitory activity in both tumor cells and endothelial cells

## zinc; 8-hydroxy-3,4,4a,5,6,7,8,8a- octahydro-2H-quinolin-1-ide-5-sulfonic acid; 5-sulfo-1,2-dihydroquinolin-8-olate [Compound 61]
[4]
  tube formation inhibition: tube formation inhibitors
[2]
  growth inhibitory activity in tumor cells vs endothelial cells: inhibit the growth of both endothelial cells and tumor cells
